Data published in PMC2821923.
Residue numbers refer to the chain shown, from its start. Numbers in names are those of the source. No constants are given. Whether binding was seen depends on the method and setting. In cells and extracts the contact can be indirect. Some results given as binding are weak or reduced against the parent protein; the word gives no strength. Sequences can lack the tags named with a protein.

Amino acid sequences for entries named in this document (tags omitted).
UniProt P69853: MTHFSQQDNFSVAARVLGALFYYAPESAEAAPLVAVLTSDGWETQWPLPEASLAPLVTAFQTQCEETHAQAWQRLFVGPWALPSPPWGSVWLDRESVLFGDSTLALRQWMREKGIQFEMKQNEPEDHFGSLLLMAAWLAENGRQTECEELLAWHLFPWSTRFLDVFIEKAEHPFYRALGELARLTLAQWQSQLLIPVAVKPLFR

B1: TatA(F39A) fused to a YFP fragment (F39A-Y1; F39A-Y2) (protein, UniProt P69428 1-89)
chain: MGGISIWQLLIIAVIVVLLFGTKKLGSIGSDLGASIKGAKKAMSDDEPKQDKTSQDADFTAKTIADKQADTNQEQAKTEDAKRHDKEQV
B2: TatB fused to a YFP fragment (TatB-Y1; TatB-Y2) (protein, UniProt P69425 1-171)
chain: MFDIGFSELLLVFIIGLVVLGPQRLPVAVKTVAGWIRALRSLATTVQNELTQELKLQEFQDSLKKVEKASLTNLTPELKASMDELRQAAESMKRSYVANDPEKASDEAHTIHNPVVKDNEAAHEGVTPAAAQTQASSPEQKPETTPEPVVKPAADAEPKTAAPSPSSSDKP
B3: TatA fused to a YFP fragment (TatA-Y1; TatA-Y2) (protein, UniProt P69428 1-89)
chain: B1 chain with A39F
B4: TatC fused to a YFP fragment (TatC-Y1; TatC-Y2) (protein, UniProt P69423 1-258)
chain: MSVEDTQPLITHLIELRKRLLNCIIAVIVIFLCLVYFANDIYHLVSAPLIKQLPQGSTMIATDVASPFFTPIKLTFMVSLILSAPVILYQVWAFIAPALYKHERRLVVPLLVSSSLLFYIGMAFAYFVVFPLAFGFLANTAPEGVQVSTDIASYLSFVMALFMAFGVSFEVPVAIVLLCWMGITSPEDLRKKRPYVLVGAFVVGMLLTPPDVFSQTLLAIPMYCLFEIGVFFSRFYVGKGRNREEENDAEAESEKTEE
B5: TatC fused to a YFP fragment (TatC-Y1; TatC-Y2), P69423 1-258 (protein)
chain: B4 chain

Tests used:
Experiment in all cases: split reporter; split YFP BiFC in living TG1 ΔtatABCE cells (TatA also in ΔtatAE, TatB/TatC also in ΔtatB and ΔtatC); median fluorescence by flow cytometry against unfused Y1 or Y2 controls, fluorescence microscopy
[1] = target: T1, TatA fused to a YFP fragment (TatA-Y1; TatA-Y2) (E. coli) (UniProt P69428)
T1 sequence: B1 chain with A39F

[2] = target: T2, TatC(E103R) fused to a YFP fragment (E103R-Y1; E103R-Y2) (E. coli) (UniProt P69423)
T2 sequence: B4 chain with E103R

[3] = target: T3, TatB fused to a YFP fragment (TatB-Y1; TatB-Y2) (E. coli) (UniProt P69425)
T3 sequence: B2 chain

[4] = target: T4, TatC(P48A) fused to a YFP fragment (P48A-Y1; P48A-Y2) (E. coli) (UniProt P69423)
T4 sequence: B4 chain with P48A

[5] = target: T5, TatC fused to a YFP fragment (TatC-Y1; TatC-Y2) (E. coli) (UniProt P69423)
T5 sequence: B4 chain

[6] = target: DmsD fused to a YFP fragment (DmsD-Y2; DmsD-Y1) (E. coli) (UniProt P69853)
[7] = target: T6, TatC fused to a YFP fragment (TatC-Y1; TatC-Y2) (E. coli), P69423; settings: remark: other sources report otherwise
T6 chain: B4 chain

Binder | binding [1] | binding [3] | binding [5] | binding [6] | further results
B1 | binds |  |  |  | 
B2 |  | binds | binds | binds | binding [2]: binds; binding [4]: binds
B3 |  |  | binds |  | 
B4 | binds | binds |  | binds | 
B5 |  |  |  |  | binding [7]: no binding
